This note sets out measurements from the supplement of paper PMC7666118.

Amino acid sequences for entries named in this document (tags omitted). A change or cut given only in a name is not applied to a line headed by its entry.
UniProt Q00266: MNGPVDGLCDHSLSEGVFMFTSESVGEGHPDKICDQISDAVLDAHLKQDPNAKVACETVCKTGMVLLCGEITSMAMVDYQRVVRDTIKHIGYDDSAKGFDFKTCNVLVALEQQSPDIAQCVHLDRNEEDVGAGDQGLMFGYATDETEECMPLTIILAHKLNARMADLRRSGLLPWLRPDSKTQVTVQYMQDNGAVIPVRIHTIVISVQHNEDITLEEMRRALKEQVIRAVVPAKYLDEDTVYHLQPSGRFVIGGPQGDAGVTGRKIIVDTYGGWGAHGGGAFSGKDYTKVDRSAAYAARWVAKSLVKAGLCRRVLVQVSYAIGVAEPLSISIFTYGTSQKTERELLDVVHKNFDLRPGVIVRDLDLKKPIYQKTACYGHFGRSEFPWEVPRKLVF
UniProt Q15773: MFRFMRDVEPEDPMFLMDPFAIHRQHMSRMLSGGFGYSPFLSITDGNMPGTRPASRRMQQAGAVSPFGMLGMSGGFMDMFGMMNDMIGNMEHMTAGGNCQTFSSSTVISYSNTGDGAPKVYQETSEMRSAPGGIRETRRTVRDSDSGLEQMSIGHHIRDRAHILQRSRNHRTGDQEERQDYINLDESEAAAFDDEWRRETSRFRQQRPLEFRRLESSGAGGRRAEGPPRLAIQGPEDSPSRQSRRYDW
UniProt Q9Y6D9: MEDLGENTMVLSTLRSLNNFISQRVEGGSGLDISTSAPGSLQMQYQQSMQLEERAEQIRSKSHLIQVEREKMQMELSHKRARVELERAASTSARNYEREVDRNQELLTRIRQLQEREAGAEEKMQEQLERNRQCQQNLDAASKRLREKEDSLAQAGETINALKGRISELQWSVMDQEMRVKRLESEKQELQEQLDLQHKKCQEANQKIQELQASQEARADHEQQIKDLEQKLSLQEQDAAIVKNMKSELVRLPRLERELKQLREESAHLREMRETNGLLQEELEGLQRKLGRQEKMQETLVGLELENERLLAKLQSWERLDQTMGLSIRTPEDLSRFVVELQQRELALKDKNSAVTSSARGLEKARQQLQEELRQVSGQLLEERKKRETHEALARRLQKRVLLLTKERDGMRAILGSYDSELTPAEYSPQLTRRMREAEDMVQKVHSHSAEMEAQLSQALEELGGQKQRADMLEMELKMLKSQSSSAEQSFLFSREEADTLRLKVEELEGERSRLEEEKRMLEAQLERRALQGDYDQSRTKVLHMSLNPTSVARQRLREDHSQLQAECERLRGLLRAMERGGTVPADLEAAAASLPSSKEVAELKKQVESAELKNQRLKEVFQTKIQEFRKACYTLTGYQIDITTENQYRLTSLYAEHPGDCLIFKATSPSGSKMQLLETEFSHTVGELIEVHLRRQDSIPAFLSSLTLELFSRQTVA
UniProt Q5VZF2: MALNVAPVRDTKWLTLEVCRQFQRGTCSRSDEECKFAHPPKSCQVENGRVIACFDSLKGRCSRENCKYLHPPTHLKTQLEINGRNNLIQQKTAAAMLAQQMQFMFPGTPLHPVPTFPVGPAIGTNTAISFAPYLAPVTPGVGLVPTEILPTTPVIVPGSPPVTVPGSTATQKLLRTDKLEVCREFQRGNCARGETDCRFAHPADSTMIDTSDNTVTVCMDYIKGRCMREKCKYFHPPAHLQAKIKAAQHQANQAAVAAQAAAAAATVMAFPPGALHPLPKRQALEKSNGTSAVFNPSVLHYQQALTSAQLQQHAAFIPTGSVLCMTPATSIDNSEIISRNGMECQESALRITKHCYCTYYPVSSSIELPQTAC
UniProt P56270: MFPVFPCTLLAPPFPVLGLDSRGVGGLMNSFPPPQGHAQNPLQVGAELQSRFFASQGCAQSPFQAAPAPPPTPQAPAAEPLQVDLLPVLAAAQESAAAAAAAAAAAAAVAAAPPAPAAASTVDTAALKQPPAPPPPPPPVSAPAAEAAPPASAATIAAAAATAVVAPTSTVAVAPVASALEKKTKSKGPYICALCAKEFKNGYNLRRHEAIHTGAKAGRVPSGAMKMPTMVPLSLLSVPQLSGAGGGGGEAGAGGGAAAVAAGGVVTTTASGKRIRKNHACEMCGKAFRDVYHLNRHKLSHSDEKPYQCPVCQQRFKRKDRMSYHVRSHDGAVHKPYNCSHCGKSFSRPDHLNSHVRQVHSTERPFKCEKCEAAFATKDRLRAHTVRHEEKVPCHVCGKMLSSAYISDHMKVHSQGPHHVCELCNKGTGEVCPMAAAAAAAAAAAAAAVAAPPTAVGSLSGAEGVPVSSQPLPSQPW
UniProt Q9UNW1: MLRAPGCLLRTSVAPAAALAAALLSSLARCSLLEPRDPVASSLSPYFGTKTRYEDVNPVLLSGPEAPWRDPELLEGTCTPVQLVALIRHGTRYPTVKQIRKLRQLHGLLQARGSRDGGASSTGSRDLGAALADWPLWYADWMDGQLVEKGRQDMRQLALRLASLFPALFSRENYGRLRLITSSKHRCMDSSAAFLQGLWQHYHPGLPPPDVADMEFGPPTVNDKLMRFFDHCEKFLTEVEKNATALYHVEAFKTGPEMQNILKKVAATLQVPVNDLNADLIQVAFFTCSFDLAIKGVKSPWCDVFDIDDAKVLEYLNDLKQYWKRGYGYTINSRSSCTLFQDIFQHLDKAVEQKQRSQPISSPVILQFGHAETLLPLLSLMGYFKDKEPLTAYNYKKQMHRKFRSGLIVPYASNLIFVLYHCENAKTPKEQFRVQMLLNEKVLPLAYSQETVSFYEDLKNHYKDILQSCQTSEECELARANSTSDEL
UniProt Q96GA3: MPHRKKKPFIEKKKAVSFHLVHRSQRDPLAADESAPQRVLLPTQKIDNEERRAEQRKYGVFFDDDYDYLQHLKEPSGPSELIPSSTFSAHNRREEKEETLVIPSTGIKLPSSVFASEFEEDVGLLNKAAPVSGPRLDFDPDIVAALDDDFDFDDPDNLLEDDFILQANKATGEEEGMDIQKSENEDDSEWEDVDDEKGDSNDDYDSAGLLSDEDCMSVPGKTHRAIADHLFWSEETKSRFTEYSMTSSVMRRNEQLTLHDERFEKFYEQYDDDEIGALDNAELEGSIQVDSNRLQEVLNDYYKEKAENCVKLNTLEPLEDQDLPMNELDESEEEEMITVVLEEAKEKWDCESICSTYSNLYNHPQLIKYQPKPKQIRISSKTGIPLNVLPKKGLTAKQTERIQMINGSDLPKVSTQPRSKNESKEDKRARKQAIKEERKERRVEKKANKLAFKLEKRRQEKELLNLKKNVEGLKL
UniProt P62312: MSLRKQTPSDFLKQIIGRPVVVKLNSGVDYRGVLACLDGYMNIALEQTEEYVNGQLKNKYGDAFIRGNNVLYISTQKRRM
UniProt O95402: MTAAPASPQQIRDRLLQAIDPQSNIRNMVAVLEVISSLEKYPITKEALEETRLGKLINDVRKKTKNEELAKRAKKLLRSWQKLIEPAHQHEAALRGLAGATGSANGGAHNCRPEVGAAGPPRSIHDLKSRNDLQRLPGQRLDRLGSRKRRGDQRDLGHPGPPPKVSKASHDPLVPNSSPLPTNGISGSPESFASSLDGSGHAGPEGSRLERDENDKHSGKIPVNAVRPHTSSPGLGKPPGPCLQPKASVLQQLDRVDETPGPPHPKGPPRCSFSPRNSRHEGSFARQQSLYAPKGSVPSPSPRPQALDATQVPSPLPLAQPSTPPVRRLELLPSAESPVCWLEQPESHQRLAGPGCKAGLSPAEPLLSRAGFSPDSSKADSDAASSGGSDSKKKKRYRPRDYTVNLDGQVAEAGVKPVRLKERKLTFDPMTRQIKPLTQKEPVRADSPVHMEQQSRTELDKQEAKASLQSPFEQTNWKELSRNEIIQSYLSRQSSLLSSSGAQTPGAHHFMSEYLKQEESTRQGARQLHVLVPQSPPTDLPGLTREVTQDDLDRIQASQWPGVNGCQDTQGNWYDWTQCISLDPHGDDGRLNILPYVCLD
UniProt Q9Y6R4: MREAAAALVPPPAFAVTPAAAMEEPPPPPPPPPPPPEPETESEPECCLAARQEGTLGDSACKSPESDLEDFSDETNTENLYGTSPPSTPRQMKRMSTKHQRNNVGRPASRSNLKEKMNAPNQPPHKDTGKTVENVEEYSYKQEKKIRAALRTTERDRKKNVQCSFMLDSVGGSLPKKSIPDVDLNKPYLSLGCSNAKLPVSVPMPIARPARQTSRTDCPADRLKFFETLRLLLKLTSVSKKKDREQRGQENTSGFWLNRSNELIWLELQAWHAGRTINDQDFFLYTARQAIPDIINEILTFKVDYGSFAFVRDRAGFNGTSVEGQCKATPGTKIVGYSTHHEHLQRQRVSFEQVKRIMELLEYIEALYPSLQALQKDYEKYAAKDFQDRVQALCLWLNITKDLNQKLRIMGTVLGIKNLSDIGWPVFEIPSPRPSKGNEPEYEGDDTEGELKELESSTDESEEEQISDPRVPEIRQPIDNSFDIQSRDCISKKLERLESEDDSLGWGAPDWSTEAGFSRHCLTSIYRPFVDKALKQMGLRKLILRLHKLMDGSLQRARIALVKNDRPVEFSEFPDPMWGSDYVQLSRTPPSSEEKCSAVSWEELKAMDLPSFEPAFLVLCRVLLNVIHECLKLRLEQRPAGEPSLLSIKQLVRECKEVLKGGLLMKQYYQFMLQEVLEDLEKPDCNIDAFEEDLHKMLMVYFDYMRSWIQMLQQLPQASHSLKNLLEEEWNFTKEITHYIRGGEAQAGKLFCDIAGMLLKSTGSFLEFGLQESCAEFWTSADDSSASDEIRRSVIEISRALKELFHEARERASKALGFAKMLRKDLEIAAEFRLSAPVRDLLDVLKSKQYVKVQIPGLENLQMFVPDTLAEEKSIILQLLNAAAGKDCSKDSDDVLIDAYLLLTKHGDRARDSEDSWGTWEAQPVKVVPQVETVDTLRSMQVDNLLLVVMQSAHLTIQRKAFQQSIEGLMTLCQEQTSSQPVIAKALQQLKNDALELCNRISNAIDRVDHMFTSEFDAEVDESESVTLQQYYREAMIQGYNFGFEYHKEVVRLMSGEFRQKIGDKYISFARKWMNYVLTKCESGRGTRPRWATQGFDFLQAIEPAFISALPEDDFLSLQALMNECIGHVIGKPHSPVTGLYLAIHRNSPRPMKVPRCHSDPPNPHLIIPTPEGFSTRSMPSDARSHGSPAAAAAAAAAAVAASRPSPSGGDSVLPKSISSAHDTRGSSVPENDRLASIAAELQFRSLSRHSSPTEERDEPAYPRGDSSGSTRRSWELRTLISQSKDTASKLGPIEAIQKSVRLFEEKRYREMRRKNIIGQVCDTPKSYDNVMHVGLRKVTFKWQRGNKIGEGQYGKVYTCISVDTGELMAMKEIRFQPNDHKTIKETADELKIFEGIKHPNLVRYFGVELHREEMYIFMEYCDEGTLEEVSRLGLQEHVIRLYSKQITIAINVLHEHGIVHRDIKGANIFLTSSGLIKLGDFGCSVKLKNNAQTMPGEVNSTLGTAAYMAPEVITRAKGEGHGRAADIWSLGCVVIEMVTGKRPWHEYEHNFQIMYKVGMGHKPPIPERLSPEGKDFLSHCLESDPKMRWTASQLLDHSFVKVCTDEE
UniProt P49137, whole entry, looked up: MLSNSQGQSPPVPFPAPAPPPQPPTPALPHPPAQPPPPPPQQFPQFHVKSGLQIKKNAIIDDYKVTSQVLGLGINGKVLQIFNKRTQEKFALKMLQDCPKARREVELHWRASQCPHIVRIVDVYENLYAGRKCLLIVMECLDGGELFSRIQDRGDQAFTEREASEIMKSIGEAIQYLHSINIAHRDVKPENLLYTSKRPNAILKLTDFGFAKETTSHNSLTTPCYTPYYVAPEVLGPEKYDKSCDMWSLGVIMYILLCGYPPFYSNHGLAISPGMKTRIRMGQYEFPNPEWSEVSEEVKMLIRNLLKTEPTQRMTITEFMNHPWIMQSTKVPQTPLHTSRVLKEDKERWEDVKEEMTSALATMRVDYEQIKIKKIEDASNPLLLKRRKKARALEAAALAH
UniProt Q8NCE2: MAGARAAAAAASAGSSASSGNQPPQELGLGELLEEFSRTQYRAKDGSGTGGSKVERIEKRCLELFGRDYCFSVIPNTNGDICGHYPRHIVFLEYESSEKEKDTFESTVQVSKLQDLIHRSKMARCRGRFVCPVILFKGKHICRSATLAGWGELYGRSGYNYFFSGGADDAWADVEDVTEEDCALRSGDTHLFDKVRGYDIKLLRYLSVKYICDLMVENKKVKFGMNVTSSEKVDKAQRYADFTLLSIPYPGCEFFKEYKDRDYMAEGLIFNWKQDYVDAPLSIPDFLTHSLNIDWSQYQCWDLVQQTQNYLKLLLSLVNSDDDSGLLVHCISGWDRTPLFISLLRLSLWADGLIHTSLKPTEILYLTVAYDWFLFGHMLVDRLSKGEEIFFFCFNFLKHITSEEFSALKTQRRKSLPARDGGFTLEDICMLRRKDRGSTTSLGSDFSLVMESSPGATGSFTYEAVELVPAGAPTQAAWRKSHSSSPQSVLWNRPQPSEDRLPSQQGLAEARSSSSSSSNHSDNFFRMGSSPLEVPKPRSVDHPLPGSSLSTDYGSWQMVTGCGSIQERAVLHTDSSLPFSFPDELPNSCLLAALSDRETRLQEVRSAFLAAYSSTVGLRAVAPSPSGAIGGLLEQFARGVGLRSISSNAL

The other results are listed elsewhere or left out.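 Rule for the calls: active = dose-dependent thermal stabilisation significant by F-test of dose-response against flat model at 10% FDR; inactive = not significant.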

Compound in this assay: Nc1nc2c(ncn2[C@@H]2O[C@H](COP(=O)(O)OP(=O)(O)OP(=O)(O)O)[C@@H](O)[C@H]2O)c(=O)[nH]1
Kind of assay: dose-dependent thermal stabilisation call (2D-TPP, DLPTP, 10% FDR) (binary (1 = stabilised)); higher = stabilised by the compound. The conditions noted are these: system: Jurkat gel-filtered lysate; concentration range 1-500 µM. Here is the method: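 2D thermal proteome profiling in gel-filtered Jurkat E6.1 lysate (2 mg/ml) treated with NaGTP (0, 1, 10, 100, 500 uM) for 10 min at room temperature, then heated 3 min at one of 12 temperatures (42-63.9 C). Soluble protein was quantified by TMT10 MS. The value is the DLPTP call of the paper: dose-dependent thermal stabilisation over all temperatures at 10% FDR (F-test of a dose-response against a flat model); one experiment, one call per tested protein.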
Regarding METTL14 (UniProt Q9HCE5), the “dose-dependent thermal stabilisation call” value was inactive: 0. As to MED27 (UniProt Q6P2C8), the “dose-dependent thermal stabilisation call” value was inactive: 0. Under LSM12 (UniProt Q3MHD2) stands inactive: 0; under MCM5 (UniProt P33992), inactive: 0. With MOB1B (UniProt Q7L9L4), the “dose-dependent thermal stabilisation call” value is inactive: 0.

On to MVD (UniProt P53602), for which the “dose-dependent thermal stabilisation call” value was inactive: 0. Then MMS22L (UniProt Q6ZRQ5), with inactive: 0; and MBNL1 (UniProt Q9NR56), with inactive: 0; and MDM2 (UniProt Q00987), with inactive: 0.

For MBIP (UniProt Q9NS73), the “dose-dependent thermal stabilisation call” value was inactive: 0. Under MAT1A (UniProt Q00266) stands inactive: 0. Then MLF2 (UniProt Q15773), with inactive: 0; and MAD1L1 (UniProt Q9Y6D9), with inactive: 0; and MUT (UniProt P22033), with active: 1.

With MBNL2 (UniProt Q5VZF2), the “dose-dependent thermal stabilisation call” value is inactive: 0. Consider MON1A (UniProt Q86VX9), for which the “dose-dependent thermal stabilisation call” value was inactive: 0.

Take MED20 (UniProt Q9H944): the “dose-dependent thermal stabilisation call” value is inactive: 0.

On to MAZ (UniProt P56270), for which the “dose-dependent thermal stabilisation call” value is inactive: 0. Under MPHOSPH10 (UniProt O00566) stands inactive: 0. In the case of MINPP1 (UniProt Q9UNW1), the “dose-dependent thermal stabilisation call” value is inactive: 0. Then MKL2 (UniProt Q9ULH7), with active: 1; and MICAL3 (UniProt Q7RTP6), with inactive: 0; and LTV1 (UniProt Q96GA3), with inactive: 0. Under LSM6 (UniProt P62312) stands inactive: 0.

For the target MTA3 (UniProt Q9BTC8), the “dose-dependent thermal stabilisation call” value is active: 1. Under MYB (UniProt P10242) stands inactive: 0; under MED26 (UniProt O95402), inactive: 0. Then MIEF1 (UniProt Q9NQG6), with inactive: 0. Then MCM7 (UniProt P33993), with inactive: 0. For MAP3K4 (UniProt Q9Y6R4), the “dose-dependent thermal stabilisation call” value was inactive: 0. With MAPKAPK2 (UniProt P49137), the “dose-dependent thermal stabilisation call” value was active: 1. Under MTMR14 (UniProt Q8NCE2) stands inactive: 0. As for MED7 (UniProt O43513), the “dose-dependent thermal stabilisation call” value is inactive: 0. Under MINDY3 (UniProt Q9H8M7) stands inactive: 0; under MAP1S (UniProt Q66K74), active: 1. Under MED17 (UniProt Q9NVC6) stands active: 1.

Consider MCAT (UniProt Q8IVS2), for which the “dose-dependent thermal stabilisation call” value is inactive: 0. Under METTL2B (UniProt Q6P1Q9) stands inactive: 0; under MCEE (UniProt Q96PE7), inactive: 0. Under MTOR (UniProt P42345) stands inactive: 0.
